At least one compound was matched to its structure with a doubt left. Some entries repeat one wording, which the source may state once for all of them. Some results were stated once for a whole list of compounds, not compound by compound.
Assays:
[1] = system: promastigote form of L. major; assay: Growth inhibition of Leishmania major promastigotes; assay type: cell-based; details: ranking of most effective drugs
Description: For those drugs, IC50 values were determined.

[2] = system: P. falciparum; details: Vial, et al. 1984; read-out: IC50, Plasmodium proliferation; cited from earlier work

Q: Which “IC50 range in words” value [1] does the source give for `CCCCCCCCCCCC[N+](C)(C)C.[Br-]` [E6] here?
A: The value was “in the low μM range”.

Q: For `CCCCCCCCCCCCCCCCCC[N+](C)(C)C.[Cl-]` [E9], which “IC50 range in words” value [1] is on record?
A: The value was “in the μM range”.

Q: With `CCCCCCCCCCCC[N+](CCC)(CCC)CCC.[Br-]` [E13] as the compound, how does the “IC50 range in words” value [1] read?
A: Its value is “in the μM range”.

Q: With `CCCCCCCCCCCC[N+]1(C)CCCC1.[Br-]` [E24] as the compound, how does the “IC50 range in words” value [1] read?
A: The value was “in the μM range”.

Q: For `C[N+]1(CCCCCCCCCCCCCCCC[N+]2(C)CCCC2)CCCC1.[Br-].[Br-]` [G25, 1,16-hexadecamethylenebis[N-methylpyrrolidinium]dibromide], which “IC50 range in words” value [1] is on record?
A: The value was “in the low μM range”.

Q: With `NC(CO)CO` [dl-2-amino-1,3-propranediol] as the compound, how does the IC50 [2] read?
A: The IC50 was 50 to 80 µM.
